Sequences of proteins named here, by UniProt entry; tags and fusion partners are left off.
UniProt Q9UPQ9: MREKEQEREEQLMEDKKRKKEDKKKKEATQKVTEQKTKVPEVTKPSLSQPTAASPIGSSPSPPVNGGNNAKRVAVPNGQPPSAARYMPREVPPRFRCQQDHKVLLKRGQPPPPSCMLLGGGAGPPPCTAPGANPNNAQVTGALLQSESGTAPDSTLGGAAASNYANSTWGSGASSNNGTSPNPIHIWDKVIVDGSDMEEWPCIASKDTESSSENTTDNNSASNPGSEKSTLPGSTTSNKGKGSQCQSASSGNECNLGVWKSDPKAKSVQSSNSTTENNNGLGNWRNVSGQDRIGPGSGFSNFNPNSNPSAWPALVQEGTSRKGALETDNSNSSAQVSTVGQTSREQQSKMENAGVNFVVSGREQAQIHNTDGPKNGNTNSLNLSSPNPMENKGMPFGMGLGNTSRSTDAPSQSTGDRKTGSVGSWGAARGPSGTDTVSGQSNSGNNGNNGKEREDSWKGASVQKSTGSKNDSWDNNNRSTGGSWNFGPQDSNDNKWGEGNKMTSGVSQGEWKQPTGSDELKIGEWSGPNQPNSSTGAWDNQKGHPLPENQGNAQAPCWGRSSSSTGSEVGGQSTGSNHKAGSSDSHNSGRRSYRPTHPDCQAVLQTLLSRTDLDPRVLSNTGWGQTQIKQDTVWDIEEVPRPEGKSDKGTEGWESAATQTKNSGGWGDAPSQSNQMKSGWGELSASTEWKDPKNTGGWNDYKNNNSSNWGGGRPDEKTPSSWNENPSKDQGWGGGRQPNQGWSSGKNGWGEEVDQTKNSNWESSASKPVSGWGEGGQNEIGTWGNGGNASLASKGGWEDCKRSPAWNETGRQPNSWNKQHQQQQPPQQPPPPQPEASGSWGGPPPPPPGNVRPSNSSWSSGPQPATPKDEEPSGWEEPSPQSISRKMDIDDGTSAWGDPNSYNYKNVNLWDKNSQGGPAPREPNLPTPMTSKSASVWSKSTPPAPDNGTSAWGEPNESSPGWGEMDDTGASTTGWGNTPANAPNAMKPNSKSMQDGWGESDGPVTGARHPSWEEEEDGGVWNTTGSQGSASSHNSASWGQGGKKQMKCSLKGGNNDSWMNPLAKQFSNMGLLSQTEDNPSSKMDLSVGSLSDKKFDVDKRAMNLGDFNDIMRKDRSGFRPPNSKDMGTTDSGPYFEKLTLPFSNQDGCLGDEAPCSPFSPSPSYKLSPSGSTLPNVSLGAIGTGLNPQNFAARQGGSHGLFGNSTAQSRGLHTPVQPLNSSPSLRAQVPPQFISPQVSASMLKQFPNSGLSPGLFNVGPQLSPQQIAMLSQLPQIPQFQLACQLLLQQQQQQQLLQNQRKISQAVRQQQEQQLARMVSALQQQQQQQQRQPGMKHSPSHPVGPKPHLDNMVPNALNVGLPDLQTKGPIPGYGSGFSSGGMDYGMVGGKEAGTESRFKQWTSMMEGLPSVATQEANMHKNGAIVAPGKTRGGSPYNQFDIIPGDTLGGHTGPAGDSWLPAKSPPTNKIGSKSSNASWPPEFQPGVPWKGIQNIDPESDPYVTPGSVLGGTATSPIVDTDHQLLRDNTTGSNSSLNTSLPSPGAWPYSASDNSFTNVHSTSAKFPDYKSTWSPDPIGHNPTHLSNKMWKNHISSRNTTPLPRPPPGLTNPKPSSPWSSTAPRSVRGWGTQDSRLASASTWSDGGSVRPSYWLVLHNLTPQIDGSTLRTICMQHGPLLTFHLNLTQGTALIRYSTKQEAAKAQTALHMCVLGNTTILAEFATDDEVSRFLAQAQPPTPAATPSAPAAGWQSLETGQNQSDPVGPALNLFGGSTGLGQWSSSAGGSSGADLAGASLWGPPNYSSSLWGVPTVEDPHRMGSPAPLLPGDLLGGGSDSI
UniProt P0DMV8: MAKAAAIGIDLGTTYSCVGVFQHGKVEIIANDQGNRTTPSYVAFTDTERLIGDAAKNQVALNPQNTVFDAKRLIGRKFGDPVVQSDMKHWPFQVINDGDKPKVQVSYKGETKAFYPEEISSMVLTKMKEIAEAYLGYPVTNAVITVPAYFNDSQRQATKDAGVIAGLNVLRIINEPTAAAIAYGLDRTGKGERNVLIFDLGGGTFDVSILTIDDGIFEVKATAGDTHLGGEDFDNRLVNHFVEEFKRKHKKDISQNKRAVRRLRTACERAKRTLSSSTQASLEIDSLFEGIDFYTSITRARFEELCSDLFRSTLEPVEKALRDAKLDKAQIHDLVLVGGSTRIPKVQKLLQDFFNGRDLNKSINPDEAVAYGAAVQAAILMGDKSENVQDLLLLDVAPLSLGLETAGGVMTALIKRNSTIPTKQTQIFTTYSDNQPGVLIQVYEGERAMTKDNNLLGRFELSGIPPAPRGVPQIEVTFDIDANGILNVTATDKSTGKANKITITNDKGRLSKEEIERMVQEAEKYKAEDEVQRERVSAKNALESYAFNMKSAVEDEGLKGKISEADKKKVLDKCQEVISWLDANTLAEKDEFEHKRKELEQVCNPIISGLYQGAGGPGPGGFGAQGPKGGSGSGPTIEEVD
UniProt Q92841: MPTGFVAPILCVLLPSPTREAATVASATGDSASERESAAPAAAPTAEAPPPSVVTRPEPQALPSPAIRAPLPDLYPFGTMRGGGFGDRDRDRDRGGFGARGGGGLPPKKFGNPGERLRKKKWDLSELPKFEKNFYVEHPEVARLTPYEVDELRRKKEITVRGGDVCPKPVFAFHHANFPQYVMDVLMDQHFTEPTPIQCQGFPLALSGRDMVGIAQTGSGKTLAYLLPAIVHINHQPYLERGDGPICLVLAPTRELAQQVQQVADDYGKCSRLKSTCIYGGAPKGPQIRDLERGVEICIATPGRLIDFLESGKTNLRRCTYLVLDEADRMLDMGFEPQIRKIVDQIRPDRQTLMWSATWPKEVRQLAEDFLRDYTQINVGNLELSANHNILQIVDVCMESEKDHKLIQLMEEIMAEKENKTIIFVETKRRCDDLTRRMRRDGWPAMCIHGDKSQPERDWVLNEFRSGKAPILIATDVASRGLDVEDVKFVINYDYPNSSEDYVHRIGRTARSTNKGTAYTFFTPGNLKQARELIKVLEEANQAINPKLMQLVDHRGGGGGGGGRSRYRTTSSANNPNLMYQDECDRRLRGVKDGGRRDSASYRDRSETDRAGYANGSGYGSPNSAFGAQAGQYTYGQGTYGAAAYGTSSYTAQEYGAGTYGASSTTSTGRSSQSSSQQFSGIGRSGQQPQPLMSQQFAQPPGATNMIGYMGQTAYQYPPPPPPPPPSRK
UniProt P11940: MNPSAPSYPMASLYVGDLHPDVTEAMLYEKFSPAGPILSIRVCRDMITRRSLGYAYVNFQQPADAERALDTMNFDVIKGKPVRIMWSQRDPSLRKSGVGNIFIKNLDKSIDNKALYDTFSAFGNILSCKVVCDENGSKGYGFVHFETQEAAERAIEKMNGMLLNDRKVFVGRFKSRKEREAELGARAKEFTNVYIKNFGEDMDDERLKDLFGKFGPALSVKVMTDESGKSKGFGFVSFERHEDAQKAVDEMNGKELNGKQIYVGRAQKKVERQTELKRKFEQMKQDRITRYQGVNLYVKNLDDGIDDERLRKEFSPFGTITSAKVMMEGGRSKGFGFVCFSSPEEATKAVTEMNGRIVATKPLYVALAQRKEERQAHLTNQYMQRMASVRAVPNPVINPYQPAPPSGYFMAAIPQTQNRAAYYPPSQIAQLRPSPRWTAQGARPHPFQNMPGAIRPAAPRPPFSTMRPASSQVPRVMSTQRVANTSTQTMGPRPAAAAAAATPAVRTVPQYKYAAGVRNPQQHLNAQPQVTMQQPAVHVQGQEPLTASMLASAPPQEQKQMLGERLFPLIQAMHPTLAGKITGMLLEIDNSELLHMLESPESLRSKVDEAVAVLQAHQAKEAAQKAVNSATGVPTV
UniProt P17066: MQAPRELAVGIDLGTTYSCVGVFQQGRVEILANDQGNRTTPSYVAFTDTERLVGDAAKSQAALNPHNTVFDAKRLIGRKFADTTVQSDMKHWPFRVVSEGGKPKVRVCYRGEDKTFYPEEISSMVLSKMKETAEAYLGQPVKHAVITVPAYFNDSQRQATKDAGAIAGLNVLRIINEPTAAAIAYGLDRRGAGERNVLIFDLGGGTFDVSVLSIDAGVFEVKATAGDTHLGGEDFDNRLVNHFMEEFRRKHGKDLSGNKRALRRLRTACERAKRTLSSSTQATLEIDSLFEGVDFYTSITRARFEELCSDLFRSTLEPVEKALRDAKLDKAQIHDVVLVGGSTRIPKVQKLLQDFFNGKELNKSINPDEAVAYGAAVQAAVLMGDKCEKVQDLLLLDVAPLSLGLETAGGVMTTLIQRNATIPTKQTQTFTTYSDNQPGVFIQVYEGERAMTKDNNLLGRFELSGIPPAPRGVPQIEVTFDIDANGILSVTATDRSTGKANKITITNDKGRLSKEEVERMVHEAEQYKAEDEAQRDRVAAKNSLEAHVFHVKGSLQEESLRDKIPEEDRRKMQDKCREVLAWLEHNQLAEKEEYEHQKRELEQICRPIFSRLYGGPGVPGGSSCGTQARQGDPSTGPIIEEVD
UniProt O60506: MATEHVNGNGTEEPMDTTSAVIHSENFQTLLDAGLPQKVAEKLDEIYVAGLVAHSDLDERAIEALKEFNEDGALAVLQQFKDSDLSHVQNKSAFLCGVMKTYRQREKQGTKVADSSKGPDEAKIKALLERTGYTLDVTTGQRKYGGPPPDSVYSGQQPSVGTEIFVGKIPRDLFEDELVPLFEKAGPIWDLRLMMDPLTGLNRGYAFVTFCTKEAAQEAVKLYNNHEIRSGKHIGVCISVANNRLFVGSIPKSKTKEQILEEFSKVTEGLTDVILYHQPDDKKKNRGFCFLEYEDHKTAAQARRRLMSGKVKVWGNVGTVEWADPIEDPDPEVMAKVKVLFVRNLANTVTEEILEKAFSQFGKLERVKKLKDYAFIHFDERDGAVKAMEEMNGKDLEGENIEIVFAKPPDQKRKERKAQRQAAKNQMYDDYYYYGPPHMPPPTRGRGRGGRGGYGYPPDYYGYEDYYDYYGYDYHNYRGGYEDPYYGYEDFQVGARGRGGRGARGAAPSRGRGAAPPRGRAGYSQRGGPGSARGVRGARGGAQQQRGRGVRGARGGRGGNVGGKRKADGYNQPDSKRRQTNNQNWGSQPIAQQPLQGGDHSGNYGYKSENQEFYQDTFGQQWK

In article PMC9537309:

Biological target: T1, FLAG-tagged DND1 wild-type (Dead End, full-length human protein 1-353) (human) (UniProt Q8IYX4)
T1 sequence: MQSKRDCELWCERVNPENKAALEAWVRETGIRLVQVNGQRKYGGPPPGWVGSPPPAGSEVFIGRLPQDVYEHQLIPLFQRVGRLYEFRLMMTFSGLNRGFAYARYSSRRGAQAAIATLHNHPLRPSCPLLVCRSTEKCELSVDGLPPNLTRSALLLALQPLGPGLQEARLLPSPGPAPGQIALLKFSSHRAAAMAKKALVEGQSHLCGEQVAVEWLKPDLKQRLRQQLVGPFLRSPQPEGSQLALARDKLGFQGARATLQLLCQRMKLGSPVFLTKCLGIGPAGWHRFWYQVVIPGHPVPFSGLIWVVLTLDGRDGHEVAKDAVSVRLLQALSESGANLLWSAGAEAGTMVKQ
Assay: affinity purification with mass spectrometry; lysate of HEK293T cells transfected with FLAG-tagged DND1 WT, R98A or 1-235 on FLAG-M2 magnetic beads overnight at 4 °C; IP-Lysis buffer 50 mM Tris-HCl pH 7.4, 150 mM NaCl, 1 mM EDTA, 0.5% Triton X-100; trypsin digestion on the beads, shotgun LC-MS/MS; three biological replicates; no RNase treatment described

| binding | Substance |
| --- | --- |
| binds | TNRC6B (from UniProt Q9UPQ9 1-1833) |
| binds | HSPA1A (from UniProt P0DMV8 1-641) |
| binds | DDX17 (from UniProt Q92841 1-729) |
| binds | PABPC1 (from UniProt P11940 1-636) |
| binds | HSPA6 (from UniProt P17066 1-643) |
| binds | SYNCRIP (from UniProt O60506 1-623) |

No constants are given. Whether binding was seen depends on the method and setting. Binding seen in cells or lysates may run through a third protein. A yes stands for co-enrichment or nearness to the bait. Other partners may have been found. Sequences can lack the tags named with a protein.
